Measured values from article PMC8504976.

Chains of the proteins cited; added tags and fusions are not shown. Lines headed by an entry give the natural chain unless they say otherwise; changes in a name come on top.
UniProt P35683: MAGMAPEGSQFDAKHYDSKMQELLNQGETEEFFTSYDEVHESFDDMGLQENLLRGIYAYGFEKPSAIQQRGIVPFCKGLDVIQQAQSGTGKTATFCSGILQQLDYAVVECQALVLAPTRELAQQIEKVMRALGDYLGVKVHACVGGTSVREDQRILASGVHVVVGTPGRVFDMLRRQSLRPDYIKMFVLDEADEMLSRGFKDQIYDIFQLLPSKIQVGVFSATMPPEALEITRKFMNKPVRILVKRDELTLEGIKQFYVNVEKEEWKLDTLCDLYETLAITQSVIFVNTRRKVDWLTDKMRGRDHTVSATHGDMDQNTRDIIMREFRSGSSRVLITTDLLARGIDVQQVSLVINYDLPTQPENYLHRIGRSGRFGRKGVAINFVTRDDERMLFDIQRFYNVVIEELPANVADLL

Assays:
[1] = biological target: T1, OsATG5-nYFP (rice (Oryza sativa)) (UniProt Q6ZGL4); assay: split reporter; BiFC (split YFP) in epidermal cells of N. benthamiana leaves, Agrobacterium infiltration at OD600 = 0.5, confocal microscopy 36–72 h after infiltration
T1 sequence: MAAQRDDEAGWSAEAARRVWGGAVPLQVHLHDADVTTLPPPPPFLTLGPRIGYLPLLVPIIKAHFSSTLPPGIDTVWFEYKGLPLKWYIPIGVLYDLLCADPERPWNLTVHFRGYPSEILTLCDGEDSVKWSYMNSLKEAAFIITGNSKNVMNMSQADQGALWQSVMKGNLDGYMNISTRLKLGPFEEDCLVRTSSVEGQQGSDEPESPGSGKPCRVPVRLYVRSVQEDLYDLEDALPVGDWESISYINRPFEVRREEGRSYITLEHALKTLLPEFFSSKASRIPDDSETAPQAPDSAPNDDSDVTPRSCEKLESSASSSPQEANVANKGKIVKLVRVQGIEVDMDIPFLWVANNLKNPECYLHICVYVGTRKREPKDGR

[2] = biological target: T2, cLUC-OsATG5 (rice (Oryza sativa)) (UniProt Q6ZGL4); assay: split reporter; firefly luciferase complementation imaging (LCI) in agroinfiltrated N. benthamiana leaves; 1 mM luciferin at 72 hpi; cooled CCD imaging
T2 sequence: T1 sequence

Substance	binding [1]	binding [2]
cYFP-OseIF4A (from UniProt P35683)	binds	
nLUC-OseIF4A (from UniProt P35683)		binds

These are yes or no findings as the source states them, for the method shown. In cells and extracts the contact can be indirect. A result given as binding can be weak or reduced; the word gives no strength. Sequences can lack the tags named with a protein.
